Reference: PMC5453957

What was measured:
[1] = target: GST (UniProt P08515); test: pull-down; conditions: AS1 buffer, specificity also confirmed by qPCR (Fig 3); pull-down: AS1 buffer (composition not given), 4 C, or ARGI buffer (50 mM Tris-HCl, 300 mM NaCl, 5 mM EDTA, 0.01% Tween 20, pH 7.5); recombinant protein; label: 5'-biotin (pull-down); single-stranded DNA
[2] = target: PCNA (human) (UniProt P12004); test: pull-down; conditions: AS1 buffer; pull-down: AS1 buffer (composition not given), 4 C, or ARGI buffer (50 mM Tris-HCl, 300 mM NaCl, 5 mM EDTA, 0.01% Tween 20, pH 7.5); recombinant protein; label: 5'-biotin (pull-down); single-stranded DNA
[3] = target: GFP (UniProt P42212); test: pull-down; conditions: AS1 buffer; pull-down: AS1 buffer (composition not given), 4 C, or ARGI buffer (50 mM Tris-HCl, 300 mM NaCl, 5 mM EDTA, 0.01% Tween 20, pH 7.5); recombinant protein; label: 5'-biotin (pull-down); single-stranded DNA
[4] = target: R8-PCNA (E. coli total extract) (human) (UniProt P12004); test: pull-down (affinity purification); conditions: ARGI buffer, pull-down: AS1 buffer (composition not given), 4 C, or ARGI buffer (50 mM Tris-HCl, 300 mM NaCl, 5 mM EDTA, 0.01% Tween 20, pH 7.5), protein in a lysate after overexpression, protein details: N-terminal R8, single-stranded DNA

## CATGCTTCCCCAGGGAGATGGACGGCACGTCTTTGTAATTGGTTCTGAGTTCCGTTGTGGGAGGAACATGCGTCGCAAAC [24-10 aptamer full length]
[1]
  binding result: no binding
[2]
  binding result: no binding
[3]
  binding result: no binding

## CTTTGTAATTGGTTCTGAGTTCCGTTGTGGGAGGAACATG [AR aptamer (24-10 nt 31-70; 5'/-30 and 3'/-10)]
[4]
  binding result: binds

Construct, isoform or probe ends are uncertain for at least one entry. For some of these results: Negatives hold for the conditions tested. For some of these results: At least one verdict rests on a figure or table, not on a statement of the authors. For some of these results: At least one result comes from cells or an extract, where the contact may be indirect.
